PMC7819943, “Rice protein-binding microarrays: a tool to detect cis-acting elements near promoter regions in rice”
The list shows a part of the results.

The chains behind the UniProt entries cited, without tags or fusion partners.
UniProt Q0JBA9, entry or part of it: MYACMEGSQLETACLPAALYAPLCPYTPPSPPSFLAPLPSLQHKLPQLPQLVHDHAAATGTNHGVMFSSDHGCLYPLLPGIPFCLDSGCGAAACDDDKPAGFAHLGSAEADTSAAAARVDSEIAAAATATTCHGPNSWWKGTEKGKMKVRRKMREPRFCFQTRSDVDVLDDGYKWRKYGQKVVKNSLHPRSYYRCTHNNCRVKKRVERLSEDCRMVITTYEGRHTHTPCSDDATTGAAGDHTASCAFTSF

What follows are sequences tested against OsWRKY34 (Oryza sativa, UniProt Q0JBA9 1-250) (assay: protein-binding microarray (RPBM); PBS, 2% BSA, 51.3 ng/ul salmon testes DNA, 50 uM zinc acetate, 200 nM TF, 25 C, 1 h; high values mean tight binding). Conditions: protein: recombinant; tags: N-terminal polyhistidine and DsRed monomer fusion (pET32a); label: CyDye5-dUTP incorporated in the synthesized complementary strand; 3' TTTTT single-stranded linker to array surface; dsDNA, one strand shown.
Method in brief: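 An Axon 4000B scanner gave the binding signal as per-feature fluorescence intensity in arbitrary units. This followed washing of a custom Agilent array that had been incubated for 1 h at 25 °C with 200 nM protein in PBS, 2% BSA, salmon testes DNA and 50 µM zinc acetate. The proteins were transcription factors fused at the N-terminus to polyhistidine and DsRed, expressed in E. coli BL21-CodonPlus and purified on Ni–NTA.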

Sequence	binding signal
CTCTCCTCTACTTTCTTTGCCAGCGCCACGACCCCAAGAACGGAGTCACCTAGTGCAG	8710 fluorescence intensity (a.u.)
CGGCTAGGGACGGGGACGACGCCGGAGTGGGTGGGGAAGGCGGAGTCACCTAGTGCAG	8680 fluorescence intensity (a.u.)
GATTTTTAGTGAATATAATGAAATTTCACAGGGGAGGGGCCGGAGTCACCTAGTGCAG	13400 fluorescence intensity (a.u.)
ACCACCATATGCTACTTCTTTCTTAATTTTGTTGTAATTTCGGAGTCACCTAGTGCAG	8200 fluorescence intensity (a.u.)
GGCGCCGGTGGCGCGTTGGTGCCCCTCATCATCTCCTTGTCGGAGTCACCTAGTGCAG	8680 fluorescence intensity (a.u.)
CTCACTATCTTCATTTGTCCAAACTCTAATAATATAGTATCGGAGTCACCTAGTGCAG	8200 fluorescence intensity (a.u.)
TTTCCTTTGAGTCTATCCCTATCATTTAATTCCTGCGTTTCGGAGTCACCTAGTGCAG	8120 fluorescence intensity (a.u.)
TCTTGCCCATCCTGCAACTCTTGCTACTATACTGCACCAACGGAGTCACCTAGTGCAG	8810 fluorescence intensity (a.u.)
CCATTTCCCCTTCATGTTCGTATAGTAATTTGCCAACAATCGGAGTCACCTAGTGCAG	11400 fluorescence intensity (a.u.)
TCCTTCACCCAACTCTTCACTTATCCCCGTTCTATCATTTCGGAGTCACCTAGTGCAG	11700 fluorescence intensity (a.u.)
CTGGCCGGTTGACCTCTTCTTCCAGGTAACCCTTCGCTTTCGGAGTCACCTAGTGCAG	9680 fluorescence intensity (a.u.)
ACCTAACCCTAATCAATCCATTTCCACCGAAACCGATCCCCGGAGTCACCTAGTGCAG	8070 fluorescence intensity (a.u.)
TAACCCTACTTGTTATATACTTTCTCTTCCTCTTCCTCTTCGGAGTCACCTAGTGCAG	8030 fluorescence intensity (a.u.)
GAACTACAAAGGTACTACTGTCCTCATGCCCTACATACATCGGAGTCACCTAGTGCAG	8360 fluorescence intensity (a.u.)
AATTTGTTTATATCGAGGGGTTGGAACAAGTCACTAATAGCGGAGTCACCTAGTGCAG	8480 fluorescence intensity (a.u.)
GGACATGCGCTGTTACTTTCTTCGTGCCTTTTGTTTGATACGGAGTCACCTAGTGCAG	8800 fluorescence intensity (a.u.)
ACGCGTCCTCCACTCCAGCCTGTGCCAACGAGACGAGGGACGGAGTCACCTAGTGCAG	8050 fluorescence intensity (a.u.)
ATCTTATTTTTGCTTCAGCCTGATTTTAGTTTTCATTGGCCGGAGTCACCTAGTGCAG	8460 fluorescence intensity (a.u.)
CTACTGGTCTCAACTCTCATCTATGCTGCTTCATGAGAACCGGAGTCACCTAGTGCAG	9390 fluorescence intensity (a.u.)
ATATTCTCATTTTCAGTCTGTTGCACTAATTTTGCTATTTCGGAGTCACCTAGTGCAG	12800 fluorescence intensity (a.u.)
CTCTTCTACAAATTGGACTTTGGTTATTTAGCTGGAAACTCGGAGTCACCTAGTGCAG	8720 fluorescence intensity (a.u.)

Sequence	binding signal
CGTCTCCGTCTCCGTCTCCTACTCTTTCCTCCTCTTACAACGGAGTCACCTAGTGCAG	11700 fluorescence intensity (a.u.)
CAATGATTCTATATAGTACACAACTACTCACCATCTTTTTCGGAGTCACCTAGTGCAG	9400 fluorescence intensity (a.u.)
ATGGGTCATTTTGCCGCGCTTTTTTTTTCTGACTTTTCTTCGGAGTCACCTAGTGCAG	14200 fluorescence intensity (a.u.)
CAACTTCATCTGTTGGTTTTGGATCGTTGGATGTGTCACACGGAGTCACCTAGTGCAG	8360 fluorescence intensity (a.u.)
GCATTCCGTCCCGTGCTTAACGACAACCATGCACGGCCTGCGGAGTCACCTAGTGCAG	8090 fluorescence intensity (a.u.)
CGCACTATCTTATACGGGTCATTAATTTTTTTTATAAAATCGGAGTCACCTAGTGCAG	8760 fluorescence intensity (a.u.)
ACCACCGCTTCCTCCCACCTCTACTCCATTCCTCTTTCTTCGGAGTCACCTAGTGCAG	10700 fluorescence intensity (a.u.)
GGGAGTAGTATTGTTCTAGATGACATGGCAACGGTATTTCCGGAGTCACCTAGTGCAG	9640 fluorescence intensity (a.u.)
ATACTCTACATCGAATATTCCTTATTTTTAATTCTAAATTCGGAGTCACCTAGTGCAG	9750 fluorescence intensity (a.u.)
TCTCCATTTCTCCCGGCTTCCTCTTCTCCTCCTCCTATACCGGAGTCACCTAGTGCAG	9530 fluorescence intensity (a.u.)
ACATGTCCCTACTGGCTGCTCTGCCTACTGCTGCCCGGACCGGAGTCACCTAGTGCAG	8980 fluorescence intensity (a.u.)
GCGGGCGGAGGAGCTCGGGCGTGGGCGGGGAGGGCGGATCCGGAGTCACCTAGTGCAG	20800 fluorescence intensity (a.u.)
GATGATTTGCTTACTGAATGTCTCGGGTATTTAGTTCCAACGGAGTCACCTAGTGCAG	8540 fluorescence intensity (a.u.)
AAACCAGACATTCTATATCCTCAGCTATTGAAACCGGACACGGAGTCACCTAGTGCAG	8940 fluorescence intensity (a.u.)
AGTTGGGCAGCAGTGGGTTGTGATATACTATGTGAATTATCGGAGTCACCTAGTGCAG	9100 fluorescence intensity (a.u.)
ATCTCTCTTGCCATTCGCTTTAGCCTAACATACGGTGCCGCGGAGTCACCTAGTGCAG	9460 fluorescence intensity (a.u.)
TGGACACTATTACTCTCTATACATAAGACTTCGCTCTTTACGGAGTCACCTAGTGCAG	8450 fluorescence intensity (a.u.)
CTTTTATTGACCATATGCTCTCTTTTATCAACCTTTTTTCCGGAGTCACCTAGTGCAG	11700 fluorescence intensity (a.u.)
TCGTTAATATTTATATTTCTCGATGCCCATGTAGCCAATCCGGAGTCACCTAGTGCAG	8560 fluorescence intensity (a.u.)
TGTTATCTACTCCCTCCGGTTCCATATTAATTGACGTTTTCGGAGTCACCTAGTGCAG	8180 fluorescence intensity (a.u.)
CCGCCGCACCACGCCCTACGACACCAACCAAACCCTCCTCCGGAGTCACCTAGTGCAG	8040 fluorescence intensity (a.u.)

Sequence	binding signal
TTTTCATTTTCTAGTACTAGCTACACACCATTAACTTTTACGGAGTCACCTAGTGCAG	8160 fluorescence intensity (a.u.)
TCTAATGCCACTTAAGCGCCACGTCAACGCTACGTAGGACCGGAGTCACCTAGTGCAG	8230 fluorescence intensity (a.u.)
CCTTCCCCGCCGCATTTCTCGCACCCCACCCCATCCCCTTCGGAGTCACCTAGTGCAG	10000 fluorescence intensity (a.u.)
GCACCTCGGACGCACAAACCCGCGCACATTTTCGCCCTAACGGAGTCACCTAGTGCAG	8120 fluorescence intensity (a.u.)
GTTCTCGACCCGGAATAAATCCCGGTCTCTTGTTATACCTCGGAGTCACCTAGTGCAG	8410 fluorescence intensity (a.u.)
GCTTGTGTTTTTATTGTCTCTGGCACTTCACATATCTATACGGAGTCACCTAGTGCAG	13300 fluorescence intensity (a.u.)
TGTCATAACGTGGAAGCTTCTCCTTCGTCTTCCATCTCACCGGAGTCACCTAGTGCAG	10400 fluorescence intensity (a.u.)
TATTGTTTGTGGTTCCTGGATGATACATGTATCCAGCACTCGGAGTCACCTAGTGCAG	9920 fluorescence intensity (a.u.)
TTGAGTTTTTTTTTTATAATTTGTGGTCATTCGTCTTATTCGGAGTCACCTAGTGCAG	9010 fluorescence intensity (a.u.)
CCCCATTTCTTTCGCATCGTCGTCTCGCCTTGCCCCGTCCCGGAGTCACCTAGTGCAG	8140 fluorescence intensity (a.u.)
ATCATATTACTGAAATGGAGACTTCTTTAGGCGTTGACTTCGGAGTCACCTAGTGCAG	11100 fluorescence intensity (a.u.)
CATGATAGATCAATCTCTTTCTTTTGTTATCCAGCAGTACCGGAGTCACCTAGTGCAG	10400 fluorescence intensity (a.u.)
AAATACTTTGTGACTTTTGTTTGTGTCCAGTTTTTACTCCCGGAGTCACCTAGTGCAG	8810 fluorescence intensity (a.u.)
GCGGCGCGGTGCGCTCGGGTGGGGCCGGTCGACGTCTGCACGGAGTCACCTAGTGCAG	8120 fluorescence intensity (a.u.)
CCTTTCCCAACTAACTTTCCTTGTTTTCCACAGACATGTTCGGAGTCACCTAGTGCAG	9640 fluorescence intensity (a.u.)
TGAAATTCTGACCTCACTTCATGCGGCGGGAGGGCGGCTGCGGAGTCACCTAGTGCAG	9910 fluorescence intensity (a.u.)
AGGCTTGTCCCCAGTTTGCTTCTTTTTTTTTGTCCAAAGACGGAGTCACCTAGTGCAG	8910 fluorescence intensity (a.u.)
GCCTCCACCGCTGTGCTACTGCATGTTCTTTTTACATTCGCGGAGTCACCTAGTGCAG	11000 fluorescence intensity (a.u.)
GCCTCATCTTTGCGCACGCGTGCCTCGGCGTCGCACTGGCCGGAGTCACCTAGTGCAG	8260 fluorescence intensity (a.u.)
CACAGCAGACGCATTTGACAGACACACGTAATCTCAACCACGGAGTCACCTAGTGCAG	10300 fluorescence intensity (a.u.)
CTCGCCGCGCCTCCACTCCTCACACCACGCTCCTCCTGACCGGAGTCACCTAGTGCAG	9560 fluorescence intensity (a.u.)

Taken from above for reference:
Sequence	binding signal
ATGGGTCATTTTGCCGCGCTTTTTTTTTCTGACTTTTCTTCGGAGTCACCTAGTGCAG	14200 fluorescence intensity (a.u.)
CAACTTCATCTGTTGGTTTTGGATCGTTGGATGTGTCACACGGAGTCACCTAGTGCAG	8360 fluorescence intensity (a.u.)
GCATTCCGTCCCGTGCTTAACGACAACCATGCACGGCCTGCGGAGTCACCTAGTGCAG	8090 fluorescence intensity (a.u.)
CGCACTATCTTATACGGGTCATTAATTTTTTTTATAAAATCGGAGTCACCTAGTGCAG	8760 fluorescence intensity (a.u.)
ACCACCGCTTCCTCCCACCTCTACTCCATTCCTCTTTCTTCGGAGTCACCTAGTGCAG	10700 fluorescence intensity (a.u.)
GGGAGTAGTATTGTTCTAGATGACATGGCAACGGTATTTCCGGAGTCACCTAGTGCAG	9640 fluorescence intensity (a.u.)
ATACTCTACATCGAATATTCCTTATTTTTAATTCTAAATTCGGAGTCACCTAGTGCAG	9750 fluorescence intensity (a.u.)
TCTCCATTTCTCCCGGCTTCCTCTTCTCCTCCTCCTATACCGGAGTCACCTAGTGCAG	9530 fluorescence intensity (a.u.)
ACATGTCCCTACTGGCTGCTCTGCCTACTGCTGCCCGGACCGGAGTCACCTAGTGCAG	8980 fluorescence intensity (a.u.)
GCGGGCGGAGGAGCTCGGGCGTGGGCGGGGAGGGCGGATCCGGAGTCACCTAGTGCAG	20800 fluorescence intensity (a.u.)
GATGATTTGCTTACTGAATGTCTCGGGTATTTAGTTCCAACGGAGTCACCTAGTGCAG	8540 fluorescence intensity (a.u.)
AAACCAGACATTCTATATCCTCAGCTATTGAAACCGGACACGGAGTCACCTAGTGCAG	8940 fluorescence intensity (a.u.)
AGTTGGGCAGCAGTGGGTTGTGATATACTATGTGAATTATCGGAGTCACCTAGTGCAG	9100 fluorescence intensity (a.u.)
ATCTCTCTTGCCATTCGCTTTAGCCTAACATACGGTGCCGCGGAGTCACCTAGTGCAG	9460 fluorescence intensity (a.u.)
TGGACACTATTACTCTCTATACATAAGACTTCGCTCTTTACGGAGTCACCTAGTGCAG	8450 fluorescence intensity (a.u.)

Carrying on.

Sequence	binding signal
TGAACAGACAGTCAGATTTGCAATATATTCAACCATGCCACGGAGTCACCTAGTGCAG	8760 fluorescence intensity (a.u.)
GTCATCCGCATCGCCTCGCGCCTCCGCCGCCGTCGCCGTCCGGAGTCACCTAGTGCAG	8500 fluorescence intensity (a.u.)
TTTCATACAGAAAGTGTGTTGGTCTGTGCTAATCTTTTCCCGGAGTCACCTAGTGCAG	8020 fluorescence intensity (a.u.)
GCAACCACCACCTCCTCATCCTCCACTGTTCAAGCCAACCCGGAGTCACCTAGTGCAG	8100 fluorescence intensity (a.u.)
TGTTTTTGTTTTGTTTGTTCTTATCTAATTGTTGTCAGAACGGAGTCACCTAGTGCAG	9120 fluorescence intensity (a.u.)
AACTTTTACTGCATCTCAGTTTCTGTAAATCTGTAATTCTCGGAGTCACCTAGTGCAG	8900 fluorescence intensity (a.u.)
CCCGCACCGCAACACGCACACCCACGCGCACGCACAAACCCGGAGTCACCTAGTGCAG	8060 fluorescence intensity (a.u.)
ATATTTTTTTTTAATATATTGACTTAATTGTTTTGCGCGTCGGAGTCACCTAGTGCAG	9100 fluorescence intensity (a.u.)
TTGAAACAAGCAACCACATGACATCTTTGACTAATCTGTTCGGAGTCACCTAGTGCAG	8530 fluorescence intensity (a.u.)
TCTCTCGCCTGTCCTCCTCTACCACCGGCGTGTTGTCAACCGGAGTCACCTAGTGCAG	8580 fluorescence intensity (a.u.)
ACTACGTTCCCAATCACGAGCCCCGTTCCGGATTTCGCTCCGGAGTCACCTAGTGCAG	8440 fluorescence intensity (a.u.)
TTTGGTTCTCCTCTCTCTCTCTCTCTCCCTTTTGACATTTCGGAGTCACCTAGTGCAG	8080 fluorescence intensity (a.u.)
CCACGACTCTGCGTTTGCATGTTTGTGTTGTATTTACTTCCGGAGTCACCTAGTGCAG	9200 fluorescence intensity (a.u.)
GCTTTGACTAAATTATCATAAAACTATGTATCACACAACTCGGAGTCACCTAGTGCAG	8390 fluorescence intensity (a.u.)
CTCCATTTTTTTTTTCTTCTCTTCTTCTTACGAACTCGAACGGAGTCACCTAGTGCAG	8410 fluorescence intensity (a.u.)
GTTCGTGGGAGGAAGACTAGTTTTAGGGCGGGATTATAAACGGAGTCACCTAGTGCAG	10300 fluorescence intensity (a.u.)
ACAATCCTTCACAAAACCGACTCCAAAACCTCACCCACGTCGGAGTCACCTAGTGCAG	10400 fluorescence intensity (a.u.)
CACTCTCTCTCGCTGTCTTTCTCTCCTTCCATTTCATTTCCGGAGTCACCTAGTGCAG	8250 fluorescence intensity (a.u.)
AACAAGTGAAGCAACATTTTTCACTAGCAGGCGGGAGGGGCGGAGTCACCTAGTGCAG	8520 fluorescence intensity (a.u.)
TCCTCTTTTCCGATACTGATATTACCAAATTTGGTCGTTACGGAGTCACCTAGTGCAG	8890 fluorescence intensity (a.u.)
GTATAGCCTCTACACCTGTCTGCCTATAAATTCCACACGACGGAGTCACCTAGTGCAG	9430 fluorescence intensity (a.u.)
